Data from PMC10190619.
Results are given in words; binding and its absence hold for the method and conditions named. Binding seen in cells or lysates may run through a third protein. Binding can be weak; no strength is given.

Sequences of proteins named here, by UniProt entry; tags and fusion partners are left off. A change or cut given only in a name is not applied to a line headed by its entry.
UniProt Q16531: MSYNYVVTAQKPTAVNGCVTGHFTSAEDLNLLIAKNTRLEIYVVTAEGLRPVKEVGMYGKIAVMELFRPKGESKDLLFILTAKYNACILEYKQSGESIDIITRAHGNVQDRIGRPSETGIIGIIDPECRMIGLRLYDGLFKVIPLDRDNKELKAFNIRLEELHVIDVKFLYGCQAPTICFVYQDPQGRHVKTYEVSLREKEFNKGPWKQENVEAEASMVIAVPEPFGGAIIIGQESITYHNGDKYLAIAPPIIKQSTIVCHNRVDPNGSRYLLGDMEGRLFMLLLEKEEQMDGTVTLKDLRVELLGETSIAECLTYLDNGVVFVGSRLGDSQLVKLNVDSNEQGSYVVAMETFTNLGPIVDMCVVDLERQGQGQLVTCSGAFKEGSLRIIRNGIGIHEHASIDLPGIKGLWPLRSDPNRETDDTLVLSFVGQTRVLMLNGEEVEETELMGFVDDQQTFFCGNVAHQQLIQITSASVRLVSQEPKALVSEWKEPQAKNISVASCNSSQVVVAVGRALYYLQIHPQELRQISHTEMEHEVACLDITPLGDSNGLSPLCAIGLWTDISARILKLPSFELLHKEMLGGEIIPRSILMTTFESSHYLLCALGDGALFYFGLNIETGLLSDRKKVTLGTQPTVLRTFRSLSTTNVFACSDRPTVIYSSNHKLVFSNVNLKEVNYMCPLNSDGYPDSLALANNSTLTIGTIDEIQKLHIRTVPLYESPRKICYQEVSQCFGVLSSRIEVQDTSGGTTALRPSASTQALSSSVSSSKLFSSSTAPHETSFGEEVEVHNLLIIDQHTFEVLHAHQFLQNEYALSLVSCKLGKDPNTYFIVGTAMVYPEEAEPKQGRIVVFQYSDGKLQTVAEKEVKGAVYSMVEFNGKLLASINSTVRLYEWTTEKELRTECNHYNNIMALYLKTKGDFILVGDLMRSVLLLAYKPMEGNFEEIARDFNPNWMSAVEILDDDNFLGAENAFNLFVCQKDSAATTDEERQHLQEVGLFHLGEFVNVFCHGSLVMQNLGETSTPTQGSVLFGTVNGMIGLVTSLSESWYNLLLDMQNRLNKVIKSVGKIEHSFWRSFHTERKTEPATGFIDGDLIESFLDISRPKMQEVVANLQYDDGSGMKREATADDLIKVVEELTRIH
UniProt Q96LA8: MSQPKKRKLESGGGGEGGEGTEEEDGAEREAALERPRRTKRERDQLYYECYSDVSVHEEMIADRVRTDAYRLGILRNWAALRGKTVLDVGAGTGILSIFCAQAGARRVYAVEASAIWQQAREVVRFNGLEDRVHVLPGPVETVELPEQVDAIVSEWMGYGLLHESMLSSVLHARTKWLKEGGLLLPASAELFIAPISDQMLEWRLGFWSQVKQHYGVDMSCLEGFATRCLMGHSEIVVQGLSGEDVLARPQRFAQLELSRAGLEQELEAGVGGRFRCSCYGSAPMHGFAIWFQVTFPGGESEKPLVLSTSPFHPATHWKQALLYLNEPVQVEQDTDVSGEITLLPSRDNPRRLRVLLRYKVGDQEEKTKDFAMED
UniProt P09874: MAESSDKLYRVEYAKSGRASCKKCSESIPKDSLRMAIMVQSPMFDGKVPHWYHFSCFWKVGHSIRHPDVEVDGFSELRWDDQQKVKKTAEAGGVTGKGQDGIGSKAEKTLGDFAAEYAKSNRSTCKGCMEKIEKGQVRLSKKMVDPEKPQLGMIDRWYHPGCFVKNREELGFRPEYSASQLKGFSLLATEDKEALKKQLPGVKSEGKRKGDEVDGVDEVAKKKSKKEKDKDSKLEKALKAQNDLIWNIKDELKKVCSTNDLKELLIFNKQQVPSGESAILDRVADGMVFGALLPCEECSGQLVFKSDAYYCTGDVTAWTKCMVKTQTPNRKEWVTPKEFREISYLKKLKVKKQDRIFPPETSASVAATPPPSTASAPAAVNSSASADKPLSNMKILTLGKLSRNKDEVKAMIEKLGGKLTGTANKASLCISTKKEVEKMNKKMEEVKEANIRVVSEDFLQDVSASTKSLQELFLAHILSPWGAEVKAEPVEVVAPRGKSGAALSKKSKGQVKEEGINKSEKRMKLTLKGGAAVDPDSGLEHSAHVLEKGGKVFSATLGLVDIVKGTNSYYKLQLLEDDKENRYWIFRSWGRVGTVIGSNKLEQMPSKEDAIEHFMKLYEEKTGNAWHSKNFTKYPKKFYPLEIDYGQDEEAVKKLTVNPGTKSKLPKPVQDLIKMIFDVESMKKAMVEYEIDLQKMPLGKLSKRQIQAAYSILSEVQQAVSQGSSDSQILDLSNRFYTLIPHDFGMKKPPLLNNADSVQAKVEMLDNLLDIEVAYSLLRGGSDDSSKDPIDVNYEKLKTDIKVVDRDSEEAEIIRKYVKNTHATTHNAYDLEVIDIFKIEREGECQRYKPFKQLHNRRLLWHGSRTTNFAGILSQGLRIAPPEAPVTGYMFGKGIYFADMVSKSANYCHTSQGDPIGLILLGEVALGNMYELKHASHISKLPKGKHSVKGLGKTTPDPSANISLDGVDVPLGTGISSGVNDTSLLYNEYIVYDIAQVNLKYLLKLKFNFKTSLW

Legend:
[1] = molecular target: GST-fused DDB1 propeller domain BPA (UniProt Q16531); experiment: pull-down; GST fusion protein purified on glutathione-Sepharose 4B beads mixed with in vitro transcribed/translated product (rabbit reticulocyte lysate) in binding buffer; beads washed, Western blot; only the target purified
[2] = molecular target: GST-fused DDB1 propeller domain BPC (UniProt Q16531); experiment: as above

binding [1]	binding [2]	Substance
binds		in vitro transcribed/translated PRMT6 (from UniProt Q96LA8 1-375) (enzyme)
	binds	in vitro transcribed/translated PARP1 (from UniProt P09874 1-1014) (enzyme)
